Test results as given in publication PMC10796917.
Results are given in words; binding and its absence hold for the method and conditions named. Binding seen in cells or lysates may run through a third protein. Some binding calls cover weakened binding; strength is not graded here.

The chains behind the UniProt entries cited, without tags or fusion partners.
UniProt Q07864: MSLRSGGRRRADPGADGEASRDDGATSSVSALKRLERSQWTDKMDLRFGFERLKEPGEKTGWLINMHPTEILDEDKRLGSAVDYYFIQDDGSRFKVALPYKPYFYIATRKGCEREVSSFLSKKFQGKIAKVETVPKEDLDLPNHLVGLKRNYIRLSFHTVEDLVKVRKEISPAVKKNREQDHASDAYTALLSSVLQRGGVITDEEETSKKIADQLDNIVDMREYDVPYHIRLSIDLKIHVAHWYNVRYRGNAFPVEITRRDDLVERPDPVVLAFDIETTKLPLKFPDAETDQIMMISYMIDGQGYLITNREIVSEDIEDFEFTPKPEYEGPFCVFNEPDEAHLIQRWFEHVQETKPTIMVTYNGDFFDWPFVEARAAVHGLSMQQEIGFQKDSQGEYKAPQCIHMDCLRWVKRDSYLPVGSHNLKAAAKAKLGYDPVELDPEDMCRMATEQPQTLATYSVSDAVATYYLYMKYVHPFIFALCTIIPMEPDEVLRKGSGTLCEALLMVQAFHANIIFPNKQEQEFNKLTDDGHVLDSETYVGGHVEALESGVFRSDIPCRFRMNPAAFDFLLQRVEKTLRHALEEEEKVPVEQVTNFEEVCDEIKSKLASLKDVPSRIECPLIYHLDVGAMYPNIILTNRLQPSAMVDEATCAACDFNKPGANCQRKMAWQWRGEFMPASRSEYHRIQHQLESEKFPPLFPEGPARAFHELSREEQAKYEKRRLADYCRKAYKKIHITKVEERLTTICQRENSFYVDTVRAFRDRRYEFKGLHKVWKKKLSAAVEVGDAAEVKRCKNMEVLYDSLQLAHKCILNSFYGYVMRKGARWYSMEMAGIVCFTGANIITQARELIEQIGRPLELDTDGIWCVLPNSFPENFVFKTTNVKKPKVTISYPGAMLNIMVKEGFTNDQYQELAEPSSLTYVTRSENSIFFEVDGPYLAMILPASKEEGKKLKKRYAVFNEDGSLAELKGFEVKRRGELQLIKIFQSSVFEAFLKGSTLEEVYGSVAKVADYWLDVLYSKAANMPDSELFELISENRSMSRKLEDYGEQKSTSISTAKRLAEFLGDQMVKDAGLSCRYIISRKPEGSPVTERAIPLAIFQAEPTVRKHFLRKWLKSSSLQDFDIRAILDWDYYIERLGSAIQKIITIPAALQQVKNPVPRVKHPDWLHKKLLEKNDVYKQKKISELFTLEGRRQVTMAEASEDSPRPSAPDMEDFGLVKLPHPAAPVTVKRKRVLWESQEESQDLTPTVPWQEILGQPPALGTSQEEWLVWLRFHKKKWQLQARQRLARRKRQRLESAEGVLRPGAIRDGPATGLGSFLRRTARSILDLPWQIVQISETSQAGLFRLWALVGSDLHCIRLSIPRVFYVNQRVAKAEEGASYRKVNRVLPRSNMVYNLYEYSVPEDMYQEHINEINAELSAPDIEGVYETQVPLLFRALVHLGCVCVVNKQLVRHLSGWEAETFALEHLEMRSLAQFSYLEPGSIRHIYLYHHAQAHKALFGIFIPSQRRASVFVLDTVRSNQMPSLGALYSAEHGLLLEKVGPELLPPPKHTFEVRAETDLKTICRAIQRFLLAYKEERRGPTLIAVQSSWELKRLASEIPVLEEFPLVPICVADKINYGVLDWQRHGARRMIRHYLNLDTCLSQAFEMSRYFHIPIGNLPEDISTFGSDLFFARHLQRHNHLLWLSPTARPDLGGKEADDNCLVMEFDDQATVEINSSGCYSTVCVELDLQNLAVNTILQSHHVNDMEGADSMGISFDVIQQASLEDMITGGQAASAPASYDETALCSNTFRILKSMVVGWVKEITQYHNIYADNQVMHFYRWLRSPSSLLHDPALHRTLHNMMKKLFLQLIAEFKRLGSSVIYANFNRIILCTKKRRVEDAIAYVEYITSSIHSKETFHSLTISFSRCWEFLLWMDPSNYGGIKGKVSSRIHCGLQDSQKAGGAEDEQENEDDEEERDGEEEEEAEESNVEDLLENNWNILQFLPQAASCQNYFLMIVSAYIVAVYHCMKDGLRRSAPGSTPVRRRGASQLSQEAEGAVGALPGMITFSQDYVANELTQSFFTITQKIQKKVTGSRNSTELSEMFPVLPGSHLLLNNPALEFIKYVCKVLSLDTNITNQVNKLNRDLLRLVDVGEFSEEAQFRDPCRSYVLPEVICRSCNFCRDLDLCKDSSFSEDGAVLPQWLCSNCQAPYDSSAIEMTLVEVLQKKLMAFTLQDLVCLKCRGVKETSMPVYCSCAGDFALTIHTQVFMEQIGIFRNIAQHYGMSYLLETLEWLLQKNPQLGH
UniProt Q86WV6: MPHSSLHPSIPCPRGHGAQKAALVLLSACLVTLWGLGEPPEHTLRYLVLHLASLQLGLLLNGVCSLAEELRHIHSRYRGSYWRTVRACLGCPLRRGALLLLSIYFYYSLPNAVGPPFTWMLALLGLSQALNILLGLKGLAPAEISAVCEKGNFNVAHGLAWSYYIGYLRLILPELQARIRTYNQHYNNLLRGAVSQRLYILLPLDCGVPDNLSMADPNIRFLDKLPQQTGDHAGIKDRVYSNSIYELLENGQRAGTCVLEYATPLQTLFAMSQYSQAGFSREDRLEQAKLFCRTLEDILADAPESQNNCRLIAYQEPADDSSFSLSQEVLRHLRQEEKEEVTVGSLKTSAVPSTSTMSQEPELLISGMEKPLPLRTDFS
UniProt P09874: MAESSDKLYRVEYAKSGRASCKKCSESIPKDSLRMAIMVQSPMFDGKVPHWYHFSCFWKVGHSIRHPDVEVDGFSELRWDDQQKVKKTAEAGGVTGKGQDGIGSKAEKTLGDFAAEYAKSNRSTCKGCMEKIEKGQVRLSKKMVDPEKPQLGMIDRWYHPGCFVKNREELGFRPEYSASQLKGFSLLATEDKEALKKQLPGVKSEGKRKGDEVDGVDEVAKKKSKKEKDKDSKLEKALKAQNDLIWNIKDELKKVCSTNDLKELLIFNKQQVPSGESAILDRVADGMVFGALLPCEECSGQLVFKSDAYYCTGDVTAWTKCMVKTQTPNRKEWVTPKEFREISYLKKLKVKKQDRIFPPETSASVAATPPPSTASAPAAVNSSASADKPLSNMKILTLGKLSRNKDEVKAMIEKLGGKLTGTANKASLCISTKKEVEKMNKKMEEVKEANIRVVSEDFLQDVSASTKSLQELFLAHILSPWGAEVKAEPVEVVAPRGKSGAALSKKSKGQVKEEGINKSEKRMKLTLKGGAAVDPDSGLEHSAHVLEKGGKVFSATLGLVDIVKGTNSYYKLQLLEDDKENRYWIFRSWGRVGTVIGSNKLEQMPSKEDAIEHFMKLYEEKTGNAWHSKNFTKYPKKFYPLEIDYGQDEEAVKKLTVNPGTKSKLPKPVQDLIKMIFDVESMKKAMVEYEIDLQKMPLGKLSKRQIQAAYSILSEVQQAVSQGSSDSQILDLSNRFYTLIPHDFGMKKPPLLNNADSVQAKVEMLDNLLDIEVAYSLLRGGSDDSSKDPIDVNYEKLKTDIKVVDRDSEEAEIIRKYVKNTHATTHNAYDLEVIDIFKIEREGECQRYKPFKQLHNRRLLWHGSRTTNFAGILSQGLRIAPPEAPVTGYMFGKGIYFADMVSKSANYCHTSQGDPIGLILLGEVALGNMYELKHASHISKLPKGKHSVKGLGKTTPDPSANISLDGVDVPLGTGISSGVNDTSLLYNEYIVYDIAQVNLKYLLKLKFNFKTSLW
UniProt Q92878: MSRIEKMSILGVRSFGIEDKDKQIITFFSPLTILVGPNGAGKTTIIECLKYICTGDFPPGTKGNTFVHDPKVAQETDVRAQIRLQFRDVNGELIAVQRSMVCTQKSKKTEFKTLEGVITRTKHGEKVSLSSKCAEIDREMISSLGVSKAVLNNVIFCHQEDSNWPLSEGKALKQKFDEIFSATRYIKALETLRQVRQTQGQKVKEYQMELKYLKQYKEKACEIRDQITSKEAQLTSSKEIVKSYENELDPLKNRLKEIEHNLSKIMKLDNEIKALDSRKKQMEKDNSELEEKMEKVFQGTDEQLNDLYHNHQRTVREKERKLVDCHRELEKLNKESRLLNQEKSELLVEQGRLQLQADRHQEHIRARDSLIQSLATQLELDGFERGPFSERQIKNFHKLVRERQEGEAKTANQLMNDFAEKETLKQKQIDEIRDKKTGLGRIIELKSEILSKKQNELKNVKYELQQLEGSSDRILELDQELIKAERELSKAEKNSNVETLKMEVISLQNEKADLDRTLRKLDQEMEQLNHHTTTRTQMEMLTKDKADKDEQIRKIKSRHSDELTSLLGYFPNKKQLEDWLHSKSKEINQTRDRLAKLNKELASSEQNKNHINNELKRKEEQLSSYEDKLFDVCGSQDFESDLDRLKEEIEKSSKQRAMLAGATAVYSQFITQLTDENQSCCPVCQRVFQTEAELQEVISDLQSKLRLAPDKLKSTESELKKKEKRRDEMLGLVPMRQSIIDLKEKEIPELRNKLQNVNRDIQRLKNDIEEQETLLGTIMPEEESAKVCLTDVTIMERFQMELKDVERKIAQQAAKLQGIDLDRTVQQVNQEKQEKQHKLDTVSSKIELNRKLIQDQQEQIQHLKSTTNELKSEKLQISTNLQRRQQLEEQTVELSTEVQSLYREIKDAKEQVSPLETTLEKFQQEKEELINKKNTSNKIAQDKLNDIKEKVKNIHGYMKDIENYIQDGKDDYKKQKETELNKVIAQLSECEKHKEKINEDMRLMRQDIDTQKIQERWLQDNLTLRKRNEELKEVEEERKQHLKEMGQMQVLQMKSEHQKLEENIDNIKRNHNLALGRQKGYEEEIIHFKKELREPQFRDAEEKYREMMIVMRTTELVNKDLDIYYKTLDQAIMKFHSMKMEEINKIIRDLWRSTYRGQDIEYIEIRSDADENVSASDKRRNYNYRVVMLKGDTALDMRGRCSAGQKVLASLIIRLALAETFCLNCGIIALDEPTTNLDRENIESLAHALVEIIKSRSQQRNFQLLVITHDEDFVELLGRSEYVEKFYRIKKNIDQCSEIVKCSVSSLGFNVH

B1: p-TBK1 (protein, UniProt Q9UHD2 1-729)
chain: MQSTSNHLWLLSDILGQGATANVFRGRHKKTGDLFAIKVFNNISFLRPVDVQMREFEVLKKLNHKNIVKLFAIEEETTTRHKVLIMEFCPCGSLYTVLEEPSNAYGLPESEFLIVLRDVVGGMNHLRENGIVHRDIKPGNIMRVIGEDGQSVYKLTDFGAARELEDDEQFVSLYGTEEYLHPDMYERAVLRKDHQKKYGATVDLWSIGVTFYHAATGSLPFRPFEGPRRNKEVMYKIITGKPSGAISGVQKAENGPIDWSGDMPVSCSLSRGLQVLLTPVLANILEADQEKCWGFDQFFAETSDILHRMVIHVFSLQQMTAHKIYIHSYNTATIFHELVYKQTKIISSNQELIYEGRRLVLEPGRLAQHFPKTTEENPIFVVSREPLNTIGLIYEKISLPKVHPRYDLDGDASMAKAITGVVCYACRIASTLLLYQELMRKGIRWLIELIKDDYNETVHKKTEVVITLDFCIRNIEKTVKVYEKLMKINLEAAELGEISDIHTKLLRLSSSQGTIETSLQDIDSRLSPGGSLADAWAHQEGTHPKDRNVEKLQVLLNCMTEIYYQFKKDKAERRLAYNEEQIHKFDKQKLYYHATKAMTHFTDECVKKYEAFLNKSEEWIRKMLHLRKQLLSLTNQCFDIEEEVSKYQEYTNELQETLPQKMFTASSGIKHTMTPIYPSSNTLVEMTLGMKKLKEEMEGVVKELAENNHILERFGSLTMDGGLRNVDCL
modifications: phosphorylated (p-TBK1); site not given

Target: DNA polymerase ε (POLE) (human (endogenous in human EC cells)) (UniProt Q07864)
Assay: co-IP; cells lysed on ice 30 min and sonicated; supernatant incubated with specific antibodies and protein A/G agarose beads at 4 °C overnight; washed three times; western blotting; cells without or with etoposide treatment

binding, binds:
p-STING (from UniProt Q86WV6 1-379)
PARP1 (from UniProt P09874 1-1014)
RAD50 (from UniProt Q92878 1-1312)
B1
